Test results: PubChem BioAssay AID504444 (National Center for Advancing Translational Sciences (NCATS), 2011)
The campaign covered roughly 360,000 compounds. About 7,500 (2.1%) were called active. Inconclusive means that the source gave no clear call. Such entries were picked first, then a sample of the others. Calls come from the whole dose curve; as a rule, active = well fitted inhibition curve with a large enough effect; inconclusive = small, poorly fitted or top-dose-only effect, or effect the other way; inactive = flat fitted curve, though single readings scatter. Potencies of inconclusive entries are doubtful fits and often do not repeat.

assay: Nrf2 qHTS screen for inhibitors; conditions: A549 ARE-Fluc reporter, luciferase luminescence, 18-24 h; series mostly up to 46 µM; note: nearly all actives have a fitted effect of over 60% in size
Procedure, shortened: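 Nrf2 activity is the BugLite luminescence, read 15 min after reagent at room temperature, following CellTiter-Fluor cytotoxicity readout (30 min, 37C). Compound titrations were applied for 18-24 h to 5000 A549 ARE_Fluc cells/well in 5% FBS OPTI-MEM.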
Potency is the fitted concentration of half-maximal effect.

Row | Compound | Potency
1 | CCOc1ccccc1C(=S)NC1CCCCC1 | inactive
2 | Cc1ccc(OCCCCNC(C)c2ccccc2)c(C)c1 (stereo not given) | inactive
3 | Cc1cc(CSc2ccccc2)ccc1NC(=O)c1cccc([N+](=O)[O-])c1 | inconclusive: 9.2 µM [falling, partial curve, poor fit]
4 | Cc1csc2c(=O)sc(NC(=O)c3ccco3)nc12 | inactive
5 | Cc1cc(C)cc(CSCC(=O)N/N=C/c2ccc(OCC(=O)NCc3ccco3)cc2)c1 | active: 14.6 µM
6 | CCc1ccc2c(COC(=O)c3n[nH]c4ccccc34)cc(=O)oc2c1 | inconclusive: 6.51 µM [activator, single point]
7 | O=C(CCCn1c(=S)[nH]c2cc3c(cc2c1=O)OCO3)N1CCN(c2ccccc2)CC1 | inconclusive: 0.0259 µM [falling, full curve, poor fit]
8 | COc1cccc(-c2nn(C)c3sc(C(=O)Nc4ccc5c(c4)OCCO5)cc23)c1 | inactive
9 | O=C(CN(C(=O)CNC(=O)c1cccs1)c1cccc(F)c1)NC1CCCC1 | inactive
10 | CC1Oc2ccccc2N(Cc2cccc(F)c2)C1=O (stereo not given) | inactive
11 | COCC(=O)N(CCc1ccc(OC)c(OC)c1)Cc1cc2cc(C)ccc2nc1Cl | active: 16.4 µM
12 | CCCCn1nnnc1SCC(=O)Nc1ccc2c(c1)OCO2 | inconclusive: 4.11 µM [activator, partial curve, poor fit]
13 | COc1ccccc1N1CC(C(=O)Nc2ccc(S(=O)(=O)N3CCOCC3)cc2)CC1=O (stereo not given) | inactive
14 | Cc1ccc(C)c(NC(=O)c2nn(C)c3c2CS(=O)(=O)c2ccccc2-3)c1 | inactive
15 | O=C(/C=C/c1ccco1)N(Cc1ccc(Cl)cc1)C1CCS(=O)(=O)C1 (stereo not given) | inconclusive: 3.66 µM [activator, partial curve, poor fit]
16 | COc1cc(/C=C/c2nc(C#N)c(NCCc3ccccc3)o2)cc(OC)c1OC | inconclusive: 29.1 µM [falling, single point]
17 | COc1cc(NC(=O)c2nc3ccccc3nc2N2CCCCC2)cc(OC)c1OC | inactive
18 | O=C(N/C=C/c1ccccc1)c1ccccc1 | inconclusive: 7.31 µM [activator, partial curve]
19 | O=S(=O)(CCSc1ccccn1)c1nc2ccccc2s1 | inactive
20 | O=C(COc1ccccc1F)Nc1nc(-c2ccccn2)cs1 | inconclusive: 25.9 µM [falling, single point]
21 | CC1(c2cccc(Br)c2)NC(=O)N(CC(=O)Nc2ccc3c(c2)OCO3)C1=O (stereo not given) | inconclusive: 29.1 µM [falling, single point]
22 | Cc1ccc(CNC(=O)c2ccc(-c3nc(CS(=O)c4ccccc4)c(C)o3)cc2)cc1 (stereo not given) | inconclusive: 5.17 µM [falling, partial curve, poor fit]
23 | Cc1cccc(-c2nc(CSCC(=O)NCCc3ccc(Cl)cc3)c(C)o2)c1 | inconclusive: 29.1 µM [falling, single point]
24 | O=C(Nc1ccc(N2CCCC2)cc1)c1cc([N+](=O)[O-])ccc1N1CCOCC1 | inconclusive: 14.6 µM [falling, partial curve]

Laid out differently: results already given.
COc1cc(NC(=O)c2nc3ccccc3nc2N2CCCCC2)cc(OC)c1OC
  Potency: inactive
O=C(N/C=C/c1ccccc1)c1ccccc1
  Potency: inconclusive: 7.31 µM [activator, partial curve]
O=S(=O)(CCSc1ccccn1)c1nc2ccccc2s1
  Potency: inactive
O=C(COc1ccccc1F)Nc1nc(-c2ccccn2)cs1
  Potency: inconclusive: 25.9 µM [falling, single point]

Next structures:

Row | Compound | Potency
25 | CCCc1nc2ccccc2n1Cc1ccccc1OC | inconclusive: 9.2 µM [falling, partial curve, poor fit]
26 | CC1CCc2cc(F)ccc2N1C(=O)c1ccc2c(c1)OCO2 (stereo not given) | inconclusive: 25.9 µM [falling, single point]
27 | CSc1ccc(CN(C)C(=O)C(c2ccccc2)c2ccccc2)cc1 | inconclusive: 29.1 µM [falling, single point]
28 | O=C(Cn1cnc2ccccc21)c1ccc(Cl)cc1 | inconclusive: 18.4 µM [activator, single point]
29 | COc1ccccc1NC(=O)CCn1nc(-c2ccccc2)c2ccccc2c1=O | active: 23.1 µM
30 | COc1cccc(-c2ccc(=O)n(CC(=O)Nc3ccc(C(=O)N4CCCC4)cc3)n2)c1 | inconclusive: 29.1 µM [falling, single point]
31 | CCOc1ccccc1CN1CCC(Oc2ccc(C(=O)NCc3ccccn3)cc2)CC1 | inconclusive: 32.6 µM [falling, single point]
32 | CCC(C(=O)Oc1c(C(C)C)cccc1C(C)C)c1ccccc1 (stereo not given) | inactive
33 | COCC(C)N1C(=O)Cc2c1nc(N)c1c(N)nc(N3CCN(c4ccccc4F)CC3)c(C#N)c21 (stereo not given) | active: 11.6 µM
34 | CC1(C)Cc2c(C#N)c(N3CCN(C(=O)c4ccco4)CC3)nc(-c3ccco3)c2CS1 | inconclusive: 1.84 µM [falling, partial curve, poor fit]
35 | COc1nc(-c2ccc3c(c2)OCO3)n(-c2ccc(NC(=O)CSc3ccccc3)cc2)n1 | inconclusive: 25.9 µM [falling, partial curve, poor fit]
36 | CC(C)Oc1ccc(CNC(=S)N/N=C/c2cccnc2)cc1 | inconclusive: 29.1 µM [falling, single point]
37 | CCCN1CCN(CCCNC(=O)c2ccc3c(c2)sc2nc(-c4ccc(C)cc4)cn23)CC1 | inactive
38 | CCc1sc(C(=O)NNC(=O)CNC(=O)c2ccccc2F)cc1C | inconclusive: 6.51 µM [activator, single point]
39 | COc1ccccc1N1CCN(c2nc3ccc(C)cc3nc2-n2nc(C)cc2C)CC1 | inconclusive: 32.6 µM [falling, single point]
40 | Cc1cccc(-c2noc(-c3ccc(NCC4CCCO4)c([N+](=O)[O-])c3)n2)c1 (stereo not given) | inconclusive: 23.1 µM [falling, single point]
41 | O=C(N/N=C/c1cn[nH]c1-c1ccccc1)c1ccco1 | inactive
42 | COc1ccc(-c2cc(C3C4C=CCCC4(C)C(=O)N3Cc3ccccc3)ccc2F)cc1 (stereo not given) | inactive
43 | FC(F)(F)c1cc(-c2ccccc2)nc2ncnn12 | inactive
44 | Cn1c(=N)n(CC(=O)O)c2ccccc21 | inconclusive: 29.1 µM [activator, single point]
45 | Cc1cccc(Oc2ncnc3oc(-c4ccccc4)cc23)c1C | inconclusive: 1.64 µM [falling, full curve, poor fit]
46 | Cc1cccc(Nc2ccccc2C(=O)OCC(=O)N(C)C2CCS(=O)(=O)C2)c1C (stereo not given) | inconclusive: 20.6 µM [falling, single point]
47 | COc1ccc(NC(=O)c2ccc3c(c2)c(C)c(C)n3Cc2ccc(F)cc2)c(OC)c1 | inconclusive: 29.1 µM [falling, single point]
48 | Cc1cc(C(=O)CSc2nc(N)cc(N)n2)c(C)n1CC1CCCO1 (stereo not given) | inconclusive: 14.6 µM [falling, partial curve, poor fit]

Row | Compound | Potency
49 | Cc1ccc(Cl)c(OCC(=O)OCC(=O)NC2CCCc3ccccc32)c1 (stereo not given) | inconclusive: 5.8 µM [activator, full curve]
50 | CCn1ncc([N+](=O)[O-])c1C(=O)N1CCc2ccccc2C1 | inactive
51 | COc1cccc(CN2C(=O)c3ccccc3Sc3ccc(C(=O)NCCc4ccc(Cl)cc4)cc32)c1 | inconclusive: 11.6 µM [falling, partial curve]
52 | COc1cccc(OC)c1C(=O)Nc1cccc(S(=O)(=O)Nc2ccccc2Cl)c1 | inconclusive: 29.1 µM [falling, single point]
53 | COC(=O)c1c(N2C(=O)CCC2=O)sc2c1CCCC2 | inconclusive: 0.058 µM [falling, full curve, poor fit]
54 | CCc1ccc(OCC(=O)N(Cc2ccco2)Cc2ccco2)cc1 | inactive
55 | Cc1ccc(-c2sc(C(=O)NN)c(C)c2C#N)cc1 | inconclusive: 29.1 µM [falling, single point]
56 | O=C(Nc1ccc2oc(-c3ccncc3)nc2c1)c1ccccc1F | inconclusive: 0.355 µM [falling, full curve, poor fit]
57 | COc1ccc(CNC(=O)CCc2nc3cccnc3n2Cc2ccccc2)cc1 | inactive
58 | Cc1ccc(NC(=O)C2COc3ccccc3O2)c(C)c1 (stereo not given) | inconclusive: 6.51 µM [activator, partial curve]
59 | CC(=O)Nc1ccc(NC(=O)C(Cc2ccccc2)N2Cc3ccccc3C2=O)cc1 (stereo not given) | inactive
60 | COc1cccc(NC(=O)CSc2nnc(COc3ccc4c(c3)CCCC4)o2)c1 | inactive
61 | Cc1cc(Nc2cc(Cl)cc(Cl)c2)nc(N)n1 | inconclusive: 16.4 µM [falling, single point]
62 | O=C(Cn1cnc(S(=O)(=O)N2CCCC2)c1)Nc1ccccc1 | inconclusive: 5.8 µM [activator, full curve, poor fit]
63 | O=C(Nc1ccc(F)c(F)c1)c1oc2ccccc2c1NC(=O)C1CCCO1 (stereo not given) | inconclusive: 16.4 µM [activator, partial curve]
64 | COc1ccc(CN(Cc2ccccc2)C(=O)Nc2ccccc2)cc1COc1ccc(NC(C)=O)cc1 | inactive
65 | Cn1nnnc1SCc1ccc([N+](=O)[O-])cc1 | inconclusive: 29.1 µM [falling, single point]
66 | CC(NC(=O)CCc1nnc(-c2ccc(-c3ccccc3)cc2)o1)c1nc2ccccc2[nH]1 (stereo not given) | inconclusive: 7.31 µM [falling, partial curve, poor fit]
67 | CCc1nc(SCC(=O)NNC(=O)c2ccc(OC)cc2)c2ccccc2n1 | inconclusive: 20.6 µM [activator, single point]
68 | O=C(CN1CCN(Cc2ccccc2)CC1)NC(=O)NCc1ccco1 | inconclusive: 25.9 µM [falling, single point]
69 | CC(C)NC(=O)N(C)C[C@H]1Oc2ccc(NC(=O)C3CCCCC3)cc2C(=O)N([C@H](C)CO)C[C@@H]1C | inconclusive: 6.51 µM [falling, single point]
70 | CC(C)(C)C(=O)NC(=S)NNC(=O)C(c1ccccc1)c1ccccc1 | active: 20.6 µM

Some of the entries so far, in CSV form:
Row,Compound,Potency
3,Cc1cc(CSc2ccccc2)ccc1NC(=O)c1cccc([N+](=O)[O-])c1,"inconclusive: 9.2 µM [falling, partial curve, poor fit]"
4,Cc1csc2c(=O)sc(NC(=O)c3ccco3)nc12,inactive
